Results as given in paper PMC10163288.
Some of the results follow.

B1: il2ra_site1_2b5i_normal_mot_HHH_b2_00525_af2_000000142_0001_43_56_H_._HHH_b1_08452_0001_0000600026_0000001_0_af2pred_dldesign_0_af2pred (protein)
chain: SSSSSSSRRATFERVARLLREAEEVSPEERARLLEEARRLAEEAKDNFLIRMVQSEEDALSSSSS
B2: il2ra_site1_3nfp_normal_mot_f36577d69a6146de1eed06bfb95d352c_0001_1_000000124_0001_19_34_H_._HHH_b1_00879_af2_0001_0000300028_0000001_0 (protein)
chain: SSSSDAQEFLEELVEEAFKRGDRNDLRHLIKALRHALERLGNPEAEELLREAEELLEELRSSSSS
B3: il2ra_site2_3nfp_sap_19_mot_HHH_b2_05281_000000198_0001_39_56_H_._HHH_b2_05437_0001_0000300008_0000001_0_0001 (protein)
chain: DDEEELEEKAEEAAKKNDPELALEVLQLAASDPEAWEKLEEVLEEKNNALLLYSLAAEALRRENS
B4: il2ra_site1_1z92_sap_15_mot_cda1634bf71a07e6bb6bfbc1e51fcdca_0001_000000010_0001_1_14_H_._HHH_b2_04762_af2_0001_0000200017_0000001_0_0001_af2pred_0001_af2pred_1 (protein)
chain: SSSSDERLKRNLERLVESAVKLAGLSEEQEEELRELAQELAERGVDFHEAARIVDELAARLSSSS
B5: il2ra_site1_2b5i_sap_16_mot_0e5a94e4a5addaac739760efb25f0f5d_0001_000000246_0001_18_32_H_._HHH_b1_06461_af2_0001_0000100006_0000001_1_0001_af2pred_dldesign_0_af … (protein)
chain: SSSSDEAFEEIERLYKEALRLFKQGKKEEAKEKLEEALKLAQAANDSVLVSELSRLLELLSSSSS
B6: il2ra_site2_2erj_normal_mot_HHH_b2_05866_000000027_0001_43_57_H_._HHH_b1_01868_af2_0001_0000700044_0000001_1 (protein)
chain: SSSSSEEYEFAARISLRAQELFKNGNPEEARELLEEAEEYLERRNNEEALRYIEFLLRDVSSSSS
B7: il2ra_site1_2b5i_normal_mot_HHH_b1_01419_af2_000000080_0001_42_53_H_._HHH_b2_03145_af2_0001_0000300010_0000001_0 (protein)
chain: SSSSDEVEQEVDELFLKASRLFLNGNPEEAEELLEEALRLAEENNDERAAEQVRFMLERLKSSSS
B8: il2ra_site1_3nfp_normal_mot_HHH_b2_08102_af2_000000255_0001_38_50_H_._HHH_b2_05157_0001_0000400017_0000001_0_af2pred_0001_af2pred (protein)
chain: SSSSDHLAREYTEWAKRRIRELLERGDEEAARRLLEKAKRSLEIAGDEEAVEELEKLYEELSSSS
B9: il2ra_site2_3nfp_normal_mot_HHH_b1_00660_af2_000000090_0001_40_57_H_._ems_3hM_3525_af2_0001_0000100004_0000001_1_af2pred_0001_1_af2pred_swapped (protein)
chain: SSSAEEIRELIHRLLLIAVERRDHELIIFVLEVLEEVERLLLKGDEEEAKEVAKEAKEEVEKKSS
B10: il2ra_site1_1z92_sap_20_mot_HHH_b1_03619_000000222_0001_22_39_H_._HHH_b2_05240_0001_0000400039_0000001_0_0001_af2pred_0001_af2pred_1 (protein)
chain: DLLEKLEELLEEENDPALEVLRTLEKLAEEGDPAAKFMLEQIEKKLELGDPEAVKKLLERALRSI
B11: il2ra_site1_1z92_normal_mot_57fbbab2d607e533440bfb1b251026a3_0001_af2_000000189_0001_1_16_H_._HHH_b1_08204_0001_0000300017_0000001_1_1_af2pred_dldesign_0_af2pre … (protein)
chain: SSSSSSQELLDEAKERVAEYKRTRDPALRRETLEFINEAHQKAEDEEVQDKLYELYKELSSSSSS
B12: il2ra_site2_3nfp_sap_11_mot_HHH_b1_00660_af2_000000090_0001_40_57_H_._HHH_b1_02627_0001_0000100013_0000001_0_0001 (protein)
chain: SSSSSEEEKEVEELVREAERLEEEGNPEEARKILKEAALIAAQNRDFELFVAVLELLSKILSSSS
B13: il2ra_site2_3nfp_normal_mot_HHH_b1_05627_af2_000000038_0001_43_56_H_._HHH_b1_03892_af2_0001_0000100002_0000001_0 (protein)
chain: SSSSDKAEEYLKIALEILRLALEFGDEESIRNHLEAVELAAELLNDEEAEELVEEVRKRLSSSSS
B14: il2ra_site1_3nfp_normal_mot_HHH_b1_07204_af2_000000238_0001_41_55_H_._6a77b3dc8dec33c5384193294071f013_0001_0001_0000300016_0000001_0 (protein)
chain: EDRIARRLIEDLLNIPPEAVERLLEVLKKLIKEGDPEYEEELKELIEELLNVPPERARRLVKLLK
B15: il2ra_site1_3nfp_sap_17_mot_1dfc56a8f07a39e834a69883c800ee5d_0001_1_af2_000000099_0001_1_15_H_._b24aaf5b6f53f31ef722bfa630a8caa2_0001_0001_0000200019_0000001_0_ … (protein)
chain: SSSSSVRKFLRIAKQIQKLLNEGDPEEAEELLEELEELAKERGSRLARRLVEILEKQIKNRSSSS
B16: il2ra_site1_3nfp_normal_mot_HHH_b1_01231_af2_000000170_0001_1_16_H_._HHH_b1_02076_0001_0000200037_0000001_0_af2pred_0001_af2pred (protein)
chain: SSSSSSDEELRLKLRVLRLLVRITDPEEARRVLEEAEELAKELGDERLLEELERLLKLLGSSSSS
B17: il2ra_site1_2b5i_normal_mot_HHH_b2_07442_af2_000000069_0001_1_16_H_._HHH_b1_07342_0001_0000300022_0000001_0 (protein)
chain: SSSSDDEEIDELFRQASQLFRKGDTEEARRLIEEALEIAEEQGDENQKRDLEFLLEQLKKASSSS
B18: il2ra_site2_3nfp_normal_mot_HHH_b1_00660_af2_000000090_0001_40_57_H_._HHH_b2_01268_0001_0000100009_0000001_0_af2pred_0001_af2pred (protein)
chain: SSSSSDEEEEEVRELLEEAKQIPDPEERERVLRKAALIAAEARNYELFALVLEVLEKLSSSSSSS
B19: il2ra_site2_3nfp_sap_22_mot_HHH_b2_04230_000000235_0001_39_52_H_._HHH_b2_04216_0001_0000300016_0000001_0_0001 (protein)
chain: SSSSSDDHEAYEQIVELLKRAAEIEDDEEVRRLLEEAKELAEEAGDRVLRRSIEDVEKALSSSSS
B20: il2ra_site1_1z92_sap_18_mot_HHH_b2_06343_000000059_0001_18_35_H_._HHH_b1_02126_af2_0001_0000100002_0000001_0_0001 (protein)
chain: SLEELIEEAERRGNPDVALLVRDAARALQLGLPPEKIKMVLERAAERAGIPPESLEEAKEIVEKG
B21: il2ra_site1_3nfp_sap_11_mot_HHH_b1_03420_af2_000000029_0001_41_57_H_._HHH_b1_02046_0001_0000100001_0000001_0_0001 (protein)
chain: SDEKVARWLTRDIEKRAGVPSVEVEVKDGTITLHVEGDDESAELAEEIFEWFAERSGIPFSVEKH
B22: il2ra_site2_3nfp_sap_20_mot_HHH_b1_02297_000000279_0001_41_58_H_._HHH_b1_01225_0001_0000100006_0000001_0_0001 (protein)
chain: SSSSSSDREEVEELLEEARQIEDEEEVEQILLRAASIAWELNDFELYAAVSEVDRELLSSSSSSS
B23: il2ra_site1_1z92_sap_15_mot_HHH_b2_06855_af2_000000074_0001_38_49_H_._HHH_b2_08011_0001_0000400015_0000001_0_0001_af2pred_0001_af2pred_1_swapped (protein)
chain: PEELAEEAKRLLKNGNPEEAEKVLEKLAKELGSEEAFKRDLEQAEKFFGNPEQALLALIRALARQ
B24: il2ra_site2_2erj_normal_mot_HHH_b1_03107_000000098_0001_39_52_H_._HHH_b2_00515_af2_0001_0000100011_0000001_0 (protein)
chain: SSSSDENWEAVAELLIEARKALKRGDEELVKELLREAKEVAEEGNNPAAKRYVEYVERDASSSSS

Target: il2ra, P01589
Assay: yeast display titration

Apparent Kd, inactive:
B1 no binding seen
B2 no binding seen
B3 no binding seen
B4 no binding seen
B5 no binding seen
B6 no binding seen
B7 no binding seen
B8 no binding seen
B9 no binding seen
B10 no binding seen
B11 no binding seen
B12 no binding seen
B13 no binding seen
B14 no binding seen
B15 no binding seen
B16 no binding seen
B17 no binding seen
B18 no binding seen
B19 no binding seen
B20 no binding seen
B21 no binding seen
B22 no binding seen
B23 no binding seen
B24 no binding seen

Random excerpt: 2 records from the list.
Apparent Kd, inactive:
B16 no binding seen
B21 no binding seen
